Test: general procedure: solution-phase peptide synthesis; p-nitrophenyl active ester (DCC, HOBt)
Conditions: coupling step, isolated yield after flash chromatography

“BOC-L-Ser(CH2 T)-Gly-L-Ser(CH2 T)-Gly-OMe” gave a step yield of 83% isolated yield.

— patent US5731416 (dated 1998)
